Assay results: publication PMC9917391
Results are given in words; binding and its absence hold for the method and conditions named. In cells and extracts the contact can be indirect. Some results given as binding are weak or reduced against the parent protein; the word gives no strength.

Chains of the proteins cited; added tags and fusions are not shown. Residues count along the entry.
UniProt Q8N884: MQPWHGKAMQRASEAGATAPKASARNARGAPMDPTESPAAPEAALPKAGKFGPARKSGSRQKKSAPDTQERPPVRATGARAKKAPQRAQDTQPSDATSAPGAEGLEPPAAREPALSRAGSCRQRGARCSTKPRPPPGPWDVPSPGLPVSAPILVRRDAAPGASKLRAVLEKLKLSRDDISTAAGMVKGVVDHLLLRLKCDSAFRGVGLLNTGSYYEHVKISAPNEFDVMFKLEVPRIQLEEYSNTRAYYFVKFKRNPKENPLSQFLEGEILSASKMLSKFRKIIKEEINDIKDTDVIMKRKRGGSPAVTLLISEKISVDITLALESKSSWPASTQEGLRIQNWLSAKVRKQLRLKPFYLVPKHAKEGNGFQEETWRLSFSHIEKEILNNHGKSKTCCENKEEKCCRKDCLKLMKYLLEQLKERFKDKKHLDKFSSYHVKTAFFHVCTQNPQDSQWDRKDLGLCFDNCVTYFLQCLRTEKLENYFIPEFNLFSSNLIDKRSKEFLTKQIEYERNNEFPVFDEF
UniProt Q9UQF0, residues 21-538: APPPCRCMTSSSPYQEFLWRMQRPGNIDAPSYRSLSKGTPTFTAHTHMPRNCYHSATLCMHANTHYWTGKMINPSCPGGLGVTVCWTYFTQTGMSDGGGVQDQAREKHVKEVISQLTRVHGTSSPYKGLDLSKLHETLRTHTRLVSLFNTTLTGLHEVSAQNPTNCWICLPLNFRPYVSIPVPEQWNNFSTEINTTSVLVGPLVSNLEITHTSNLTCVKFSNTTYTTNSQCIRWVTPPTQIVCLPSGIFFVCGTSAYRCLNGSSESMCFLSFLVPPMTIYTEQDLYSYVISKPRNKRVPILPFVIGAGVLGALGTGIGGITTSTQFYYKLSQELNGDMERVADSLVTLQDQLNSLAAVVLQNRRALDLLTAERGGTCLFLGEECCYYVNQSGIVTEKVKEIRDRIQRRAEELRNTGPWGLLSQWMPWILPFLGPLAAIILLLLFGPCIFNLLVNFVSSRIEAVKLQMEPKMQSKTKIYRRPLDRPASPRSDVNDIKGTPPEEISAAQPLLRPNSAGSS

Target: cyclic GMP-AMP synthase (cGAS), FLAG-tagged (human) (UniProt Q8N884)
Test: co-IP; HEK-293T cells co-transfected with pENTER-N-FLAG-cGAS and pXJ40-HA-ENV (5 ug + 5 ug), 48 h; lysate supernatant mixed with anti-Flag or anti-HA magnetic beads (mouse IgG as negative control) at 4 °C overnight; washed with cell lysis buffer; western blotting

HERV-W ENV (endogenous retroviral envelope glycoprotein of the W family), HA-tagged (from UniProt Q9UQF0 21-538)
binding: binds
